In PMC12083654:
Changes are numbered by the printed parent chain. Numbers in names are those of the source. No constants are given. Whether binding was seen depends on the method and setting. Binding seen in cells or lysates may run through a third protein. Some results given as binding are weak or reduced against the parent protein; the word gives no strength. Sequences can lack the tags named with a protein. Blank lines part the entries; values can stand above or below the binder they belong to.

Target: T1, HA-tagged WT-RPE65 (human) (UniProt Q16518)
T1 sequence: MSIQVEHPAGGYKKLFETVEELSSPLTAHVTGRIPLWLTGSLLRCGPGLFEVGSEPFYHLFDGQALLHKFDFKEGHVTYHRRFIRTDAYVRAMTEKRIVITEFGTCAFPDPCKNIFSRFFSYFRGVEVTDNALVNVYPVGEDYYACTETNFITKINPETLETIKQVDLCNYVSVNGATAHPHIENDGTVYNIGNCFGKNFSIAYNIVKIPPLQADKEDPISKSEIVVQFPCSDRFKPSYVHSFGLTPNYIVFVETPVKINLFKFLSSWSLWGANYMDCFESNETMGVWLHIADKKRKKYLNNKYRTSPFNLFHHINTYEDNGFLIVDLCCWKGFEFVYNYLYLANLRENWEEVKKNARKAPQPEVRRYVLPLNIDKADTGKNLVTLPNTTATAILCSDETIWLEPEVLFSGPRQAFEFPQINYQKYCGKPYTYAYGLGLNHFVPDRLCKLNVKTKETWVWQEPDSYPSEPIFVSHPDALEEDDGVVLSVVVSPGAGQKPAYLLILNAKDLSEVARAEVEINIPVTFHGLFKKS
Assay: co-IP; ARPE-19 cells single or co-transfected at equal molar ratio with HA-tagged WT-RPE65 and MYC-tagged variant RPE65; RIPA extract 48 h after transfection; protein A Dynabeads with anti-MYC, anti-HA or anti-IgG; blots with anti-MYC and anti-HA

binding: binds
B1: MYC-tagged p.(D477G)-RPE65 (enzyme, UniProt Q16518 1-533)
chain: T1 sequence with D477G

binding: no binding
B2: MYC-tagged p.(E519K)-RPE65 (enzyme, UniProt Q16518 1-533)
chain: T1 sequence with E519K
